Values from PubChem BioAssay AID743454 (Peter MacCallum Cancer Centre, 2014).

Purpose: 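Genes whose loss kills vorinostat-resistant colon cancer cells under vorinostat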 (primary screen)
System: human HCT116-VR colon cancer cells, selected for vorinostat resistance
Reagent: siRNA pool against human genes, 40 nM siRNA pool
Duration: vorinostat for 24 h, read-out about 72 h after transfection
Conditions: vorinostat at 2.5 µM final
Read-out: 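Two measures, CellTiter-Fluor viability and luminescent caspase 3/7 activity, each as fold change against same-plate mock wells, mean of duplicates, then screen-wide robust z-score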
Direction: viability robust z-score: higher = more viable cells than screen typical; caspase robust z-score: higher = more caspase 3/7 activity than screen typical
Rule for the call: 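a knock-down is a hit when classed RV1 or RV2 for lowered viability, or CA1 or CA2 for caspase activation; those lethal without drug were dropped; hits were retested singly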
Here is an unselected part of about 18,000 reagents. 450 of all reagents (2.5%) were called active. 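Single biological run; no consistent viability z cut-off exists, so the class columns, not z-scores, define the calls.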 Unmarked entries are inactive. No sequences are given here.

gene knocked down	viability hit class	caspase hit class	viability robust z-score	caspase robust z-score
C1QL1 (complement C1q like 1)	no change	no change	0.68	-1.36
POU4F1 (POU class 4 homeobox 1)	no change	no change	0.31	1.55
KLHL6 (kelch like family member 6)	no change	no change	1.51	-0.18
ARRDC3 (arrestin domain containing 3)	no change	no change	-0.2	-1.03
ACSM3 (acyl-CoA synthetase medium chain family member 3)	no change	no change	-0.04	-0.65
HRH4 (histamine receptor H4)	no change	no change	-0.73	-0.58
UBE2D4 (ubiquitin conjugating enzyme E2 D4)	no change	no change	1.01	0.96
ARFGAP1 (ARF GTPase activating protein 1)	no change	no change	0.71	-0.99
DRC11 (dynein regulatory complex subunit 11)	no change	no change	-0.05	-1
OVCA2 (OVCA2 serine hydrolase domain containing)	no change	no change	0.35	-0.62
FAM184A (family with sequence similarity 184 member A)	no change	no change	0.88	-0.42
HLA-DMA (major histocompatibility complex, class II, DM alpha)	no change	no change	0.87	-0.84
CT47A9 (cancer/testis antigen family 47 member A9)	no change	no change	1.23	1.64
SPINK1 (serine peptidase inhibitor Kazal type 1)	no change	no change	0.74	0.27
ZNF345 (zinc finger protein 345)	no change	no change	0.07	-0.4
JDP2 (Jun dimerization protein 2)	no change	no change	-0.44	2.44
ACTR3 (actin related protein 3)	no change	no change	-0.4	-0.52
CSKMT (citrate synthase lysine methyltransferase)	no change	no change	0.32	-0.63
ZBP1 (Z-DNA binding protein 1)	no change	no change	-1.25	0.18
NDUFA13 (NADH:ubiquinone oxidoreductase subunit A13)	no change	no change	0.56	0
ODAM (odontogenic, ameloblast associated)	no change	no change	-0.88	1.23
MLH1 (mutL homolog 1)	no change	no change	0.91	0.17
FADD (Fas associated via death domain)	no change	no change	2.23	-0.17
PRR27 (proline rich 27)	no change	no change	1.26	0.12
ATP6V1B1 (ATPase H+ transporting V1 subunit B1)	no change	no change	-2.32	4.74

10 entries from above, ordered by “viability robust z-score”, ascending:
gene knocked down	viability hit class	caspase hit class	viability robust z-score	caspase robust z-score
HRH4 (histamine receptor H4)	no change	no change	-0.73	-0.58
ARRDC3 (arrestin domain containing 3)	no change	no change	-0.2	-1.03
DRC11 (dynein regulatory complex subunit 11)	no change	no change	-0.05	-1
ACSM3 (acyl-CoA synthetase medium chain family member 3)	no change	no change	-0.04	-0.65
OVCA2 (OVCA2 serine hydrolase domain containing)	no change	no change	0.35	-0.62
ARFGAP1 (ARF GTPase activating protein 1)	no change	no change	0.71	-0.99
HLA-DMA (major histocompatibility complex, class II, DM alpha)	no change	no change	0.87	-0.84
FAM184A (family with sequence similarity 184 member A)	no change	no change	0.88	-0.42
UBE2D4 (ubiquitin conjugating enzyme E2 D4)	no change	no change	1.01	0.96
KLHL6 (kelch like family member 6)	no change	no change	1.51	-0.18

Next reagents:
gene knocked down	viability hit class	caspase hit class	viability robust z-score	caspase robust z-score
GSN (gelsolin)	no change	no change	0.46	1.02
SLC71A2	no change	no change	-0.77	-0.34
DUX5 (double homeobox 5)	no change	no change	1.6	-0.21
UGP2 (UDP-glucose pyrophosphorylase 2)	no change	no change	0.43	0.55
TNFAIP3 (TNF alpha induced protein 3)	no change	no change	-0.69	-0.2
KRT79 (keratin 79)	no change	no change	-0.64	2.26
RAB11A (RAB11A, member RAS oncogene family)	no change	no change	-0.86	-0.06
MYH7 (myosin heavy chain 7)	no change	no change	-0.82	-0.36
PIAS4 (protein inhibitor of activated STAT 4)	no change	no change	-1.76	1.84
TESMIN (testis expressed metallothionein like protein)	no change	no change	0.9	-0.2
RIMOC1 (RAB7A interacting MON1-CCZ1 complex subunit 1)	no change	no change	-1.4	-0.78
GJB4 (gap junction protein beta 4)	no change	no change	-0.3	-0.68
RGP1 (RGP1 partner of RAB6A GEF complex)	no change	no change	0.02	-1.31
OR4Q3 (olfactory receptor family 4 subfamily Q member 3)	no change	no change	0.2	0.92
DEFB106A (defensin beta 106A)	no change	no change	0.64	-0.8
TMEM120A (transmembrane protein 120A)	no change	no change	1.03	0.51
AICDA (activation induced cytidine deaminase)	no change	no change	0.96	1.4
TLCD4 (TLC domain containing 4)	no change	no change	0.09	-1.13
NDC80 (NDC80 kinetochore complex component)	no change	no change	-3.34	4.11
PDIK1L (PDLIM1 interacting kinase 1 like)	no change	no change	-0.07	-0.31
PXK (PX domain containing serine/threonine kinase like)	no change	no change	0.7	0.01
AMER3 (APC membrane recruitment protein 3)	no change	no change	0.08	-1.02
EFCAB12 (EF-hand calcium binding domain 12)	no change	no change	0.21	-0.6
RTN3 (reticulon 3)	no change	no change	0.59	-0.42
DUSP3 (dual specificity phosphatase 3)	no change	no change	1.58	2.46
GZMM (granzyme M)	no change	no change	-0.12	2.21
WFDC3 (WAP four-disulfide core domain 3)	no change	no change	-1	0.16
MAPRE1 (microtubule associated protein RP/EB family member 1)	no change	no change	0.86	-0.32
RIC1 (RIC1 partner of RAB6A GEF complex)	no change	no change	-0.22	0.13
ABI3 (ABI family member 3)	no change	no change	0.36	-0.16
GBP6 (guanylate binding protein family member 6)	no change	no change	0.28	-0.97
PHB1 (prohibitin 1)	no change	no change	-2.11	-0.57
NELL2 (neural EGFL like 2)	no change	no change	0.59	0.32
ABHD4 (abhydrolase domain containing 4, N-acyl phospholipase B)	no change	no change	-0.18	-0.94
GJA9 (gap junction protein alpha 9)	no change	no change	1.14	-0.52
NUP88 (nucleoporin 88)	no change	no change	-1.1	1.76
EBF2 (EBF transcription factor 2)	no change	no change	-0.6	0.99
TLE4 (TLE family member 4, transcriptional corepressor)	no change	no change	-0.62	2.96
NOVA2 (NOVA alternative splicing regulator 2)	no change	no change	-0.14	1.08
CST4 (cystatin S)	no change	no change	0.28	-1.17
TMTC3 (transmembrane O-mannosyltransferase targeting cadherins 3)	no change	no change	0.9	-0.14
ANKRD20A5P (ankyrin repeat domain 20 family member A5, pseudogene)	no change	no change	-0.05	-0.98
FADS6 (fatty acid desaturase 6)	no change	no change	-0.08	-0.12
CEP162 (centrosomal protein 162)	no change	no change	-0.7	-0.5
NDUFS5 (NADH:ubiquinone oxidoreductase subunit S5)	no change	no change	0.2	-0.43
CCDC9 (coiled-coil domain containing 9)	no change	no change	-1.11	1
RPL5 (ribosomal protein L5)	no change	no change	-3.29	-1.12
MTCL2 (microtubule crosslinking factor 2)	no change	no change	-0.34	4.52
